From patent US5731345A, “Seco-D steroids active on the cardiovascular system and pharmaceutical compositions containing same” (Sigma-Tau Industrie Farmaceutiche Riunite S.p.A, priority 1995, dated 1998)
At least one read-out could not be matched to a standard name with certainty.

Molecular target: T1, Na^+, K^+ -ATPase (Canis lupus familiaris, UniProt P50997)
T1 construct: from tissue
Assay: displacement of specific ^3 H-oubain binding from purified Na^+, K^+ -ATPase receptor
Text: To test the affinity for the receptor site of the Na^+, K^+ -ATPase and the agonist or inhibitory activity on the enzyme, the following tests were used:
a) displacement of the specific ^3 H-oubain binding from the Na^+, K^+ -ATPase receptor purified according to Jorghensen (Jorghensen P., BBA, 1974, 356, 36) and Erdamnn (Erdmann E. et al., Arzneim. Forsh, 1984, 34, 1314);

C[C@]12CC[C@H](O)C[C@H]1CC[C@H]1[C@H](O)[C@@](C)([C@H](CCO)c3ccoc3)CC[C@@H]12 [Comp. I-b, 17β-(3-furyl)-14,15-seco-5β-androstan-3β,14β,15-triol]
Binding ^3 H-oubain displacement -log IC50: 6.0
